Laboratory results: PubChem BioAssay AID1259254 (NCATS, 2017)
Screen: 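Genome-wide screen for genes that prevent DNA re-replication in cancer cells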 (primary screen). Cells: human HCT116 colorectal cancer cells. Knock-down reagent: single siRNA against human genes. Timing: 3 days. Detection: 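Nuclei stained with Hoechst and imaged; cell-cycle phase assigned by DNA content; G2 share scaled per plate, non-targeting siRNA 0%, GMNN siRNA 100%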. Direction: G2 robust z-score: higher = more G2 cells, more excess DNA replication. Rule for the call: 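An siRNA counts as active if its G2 robust z-score lies at least 5 MADs above the screen median; here such calls match roughly 38% of GMNN control or more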.
Shown is an unselected part of about 59,000 reagents. About 1,550 of all reagents (2.6%) count as active. 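G2 share is only a proxy for re-replication; each gene was hit by three separate siRNAs, and active genes were retested.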 Reagents against one gene are numbered here. Not all columns of the deposit are shown. Not stated in the record: the amount of reagent.

Target gene	reagent	G2 robust z-score	call
AP3M1 (adaptor related protein complex 3 subunit mu 1)	1	0.468	inactive
AP3M1 (adaptor related protein complex 3 subunit mu 1)	2	-1.01	inactive
AP3M1 (adaptor related protein complex 3 subunit mu 1)	3	0.464	inactive
FAM230J (family with sequence similarity 230 member J)	1	-0.974	inactive
FAM230J (family with sequence similarity 230 member J)	2	0.0165	inactive
FAM230J (family with sequence similarity 230 member J)	3	0.645	inactive
FAM230J (family with sequence similarity 230 member J)	4	0.851	inactive
FAM230J (family with sequence similarity 230 member J)	5	5.5	active
FAM230J (family with sequence similarity 230 member J)	6	-0.331	inactive
LYSMD4 (LysM domain containing 4)	1	-0.0638	inactive
LYSMD4 (LysM domain containing 4)	2	0.208	inactive
LYSMD4 (LysM domain containing 4)	3	2.27	inactive
DOK3 (docking protein 3)	1	0.053	inactive
DOK3 (docking protein 3)	2	-0.517	inactive
DOK3 (docking protein 3)	3	0.34	inactive
EEF2K (eukaryotic elongation factor 2 kinase)	1	1.4	inactive
EEF2K (eukaryotic elongation factor 2 kinase)	2	-0.199	inactive
EEF2K (eukaryotic elongation factor 2 kinase)	3	0.302	inactive
SIPA1 (signal-induced proliferation-associated 1)	1	0.217	inactive
SIPA1 (signal-induced proliferation-associated 1)	2	1.29	inactive
SIPA1 (signal-induced proliferation-associated 1)	3	3.82	inactive
SLC25A43	1	-0.000247	inactive
SLC25A43	2	2.95	inactive
SLC25A43	3	1.76	inactive
PSD (pleckstrin and Sec7 domain containing)	1	-0.155	inactive
PSD (pleckstrin and Sec7 domain containing)	2	-0.44	inactive
PSD (pleckstrin and Sec7 domain containing)	3	1.52	inactive
CCR1 (C-C motif chemokine receptor 1)	1	1.67	inactive
CCR1 (C-C motif chemokine receptor 1)	2	0.355	inactive
CCR1 (C-C motif chemokine receptor 1)	3	1.96	inactive
LIN54 (lin-54 DREAM MuvB core complex component)	1	11	active
LIN54 (lin-54 DREAM MuvB core complex component)	2	2.23	inactive
LIN54 (lin-54 DREAM MuvB core complex component)	3	-0.0925	inactive
PTCD3 (pentatricopeptide repeat domain 3)	1	0.0422	inactive
PTCD3 (pentatricopeptide repeat domain 3)	2	0.0684	inactive
PTCD3 (pentatricopeptide repeat domain 3)	3	-1.09	inactive
ANKRD36 (ankyrin repeat domain 36)	1	-1.26	inactive
ANKRD36 (ankyrin repeat domain 36)	2	-1.01	inactive
ANKRD36 (ankyrin repeat domain 36)	3	2.24	inactive
PHKA2 (phosphorylase kinase regulatory subunit alpha 2)	1	1.97	inactive
PHKA2 (phosphorylase kinase regulatory subunit alpha 2)	2	0.967	inactive
PHKA2 (phosphorylase kinase regulatory subunit alpha 2)	3	1.02	inactive
LRRK1 (leucine rich repeat kinase 1)	1	5.05	active
LRRK1 (leucine rich repeat kinase 1)	2	1.93	inactive
LRRK1 (leucine rich repeat kinase 1)	3	1.58	inactive
OR52E6 (olfactory receptor family 52 subfamily E member 6)	1	-0.469	inactive
OR52E6 (olfactory receptor family 52 subfamily E member 6)	2	0.512	inactive
OR52E6 (olfactory receptor family 52 subfamily E member 6)	3	0.353	inactive
